Data as given in PubChem BioAssay AID1671195 (Yale University, 2021).

- Assay: 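Genes whose knockdown alters LDL uptake in liver cancer cells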 (primary screen)
- Cell system: human Huh7 hepatoma cells
- Knock-down reagent: siRNA pool against human genes, 18 nM
- Duration: about 2 to 2.5 days of knockdown, then 8 h LDL uptake
- Conditions: DiI-labelled LDL at 30 µg/ml for 8 h, in lipoprotein-deficient serum medium
- Read-out: 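Per-cell DiI-LDL intensity by automated imaging; well means scaled to the plate median and given as a robust z-score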
- Scale: robust z-score: higher = more LDL uptake after knockdown
- Rule for the call: 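Active when two or more replicates show a robust z-score above 2 or below -2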
In all, the deposit lists about 22,000 reagents; this is a part drawn at random. About 1,510 of them (6.9%) were called active. 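Active includes knockdowns raising or lowering LDL uptake; positive z-scores mean more uptake, negative mean less.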 No sequences are given here.

Depletion of ATG5 gave: robust z-score, replicate 1 = 2.38; robust z-score, replicate 2 = 2.02; robust z-score, replicate 3 = 0.314; active.
With knock-down of LOC388949 (retired record), the screen gave robust z-score, replicate 1 = 0.134; robust z-score, replicate 2 = -0.033; robust z-score, replicate 3 = 0.162; inactive.
After knock-down of HOXB2, the record shows robust z-score, replicate 1 = 0.78; robust z-score, replicate 2 = 0.541; robust z-score, replicate 3 = 0.776; inactive.
Against CBL, the entry reads robust z-score, replicate 1 = -0.871; robust z-score, replicate 2 = -0.912; robust z-score, replicate 3 = -0.929; inactive.
SLC5A6 scored robust z-score, replicate 1 = 0.0915; robust z-score, replicate 2 = 0.702; robust z-score, replicate 3 = 0.757; inactive.
With knock-down of ADGRV1, the record shows robust z-score, replicate 1 = -1.16; robust z-score, replicate 2 = -1.45; robust z-score, replicate 3 = -1.12; inactive.
With knock-down of FAM131B, the record shows robust z-score, replicate 1 = -0.69; robust z-score, replicate 2 = 0.36; robust z-score, replicate 3 = -0.333; inactive.
Against LYSET, the entry reads robust z-score, replicate 1 = 0.0224; robust z-score, replicate 2 = -1.89; robust z-score, replicate 3 = -0.409; inactive.
Depletion of PRSS42P resulted in: robust z-score, replicate 1 = -1.85; robust z-score, replicate 2 = -1.76; robust z-score, replicate 3 = -2.06; inactive.

Reagents listed so far with an active call, once more:
ATG5: robust z-score, replicate 1 = 2.38; robust z-score, replicate 2 = 2.02; robust z-score, replicate 3 = 0.314; outcome = active

Continued:
Depletion of BTAF1 came out at: robust z-score, replicate 1 = 5.23; robust z-score, replicate 2 = 2.84; robust z-score, replicate 3 = 3.4; active.
TMEM176A gave robust z-score, replicate 1 = 1.42; robust z-score, replicate 2 = -0.0913; robust z-score, replicate 3 = 1.95; inactive.
For MMP19 the deposit lists robust z-score, replicate 1 = -0.582; robust z-score, replicate 2 = -0.75; robust z-score, replicate 3 = -0.54; inactive.
PPP1R16A showed robust z-score, replicate 1 = -0.125; robust z-score, replicate 2 = -0.622; robust z-score, replicate 3 = 0.0766; inactive.
Depletion of LINC00269 resulted in: robust z-score, replicate 1 = -1.03; robust z-score, replicate 2 = -1.47; robust z-score, replicate 3 = -1.63; inactive.
Against LYST the deposit lists robust z-score, replicate 1 = -0.00949; robust z-score, replicate 2 = -0.0806; robust z-score, replicate 3 = 1.28; inactive.
Knock-down of RNF111 came out at: robust z-score, replicate 1 = 0.423; robust z-score, replicate 2 = -0.264; robust z-score, replicate 3 = -0.287; inactive.
With knock-down of ASB18, the record shows robust z-score, replicate 1 = -0.964; robust z-score, replicate 2 = -1.21; robust z-score, replicate 3 = -1.07; inactive.
After knock-down of ZFAND5, the record shows robust z-score, replicate 1 = -0.231; robust z-score, replicate 2 = 0.947; robust z-score, replicate 3 = 0.213; inactive.
LOC441507 (retired record) scored robust z-score, replicate 1 = -0.486; robust z-score, replicate 2 = -1; robust z-score, replicate 3 = -0.672; inactive.
Knock-down of TDRD7 resulted in: robust z-score, replicate 1 = -0.0879; robust z-score, replicate 2 = 0.443; robust z-score, replicate 3 = 0.534; inactive.
Depletion of LOC339746 (retired record) gave: robust z-score, replicate 1 = -0.812; robust z-score, replicate 2 = -1; robust z-score, replicate 3 = -1.06; inactive.
After knock-down of CA1, the screen gave robust z-score, replicate 1 = 1.61; robust z-score, replicate 2 = 1.56; robust z-score, replicate 3 = 1.84; inactive.
With knock-down of OR52D1 the results were robust z-score, replicate 1 = -0.424; robust z-score, replicate 2 = -0.11; robust z-score, replicate 3 = -0.23; inactive.
FHIP2A gave robust z-score, replicate 1 = 0.802; robust z-score, replicate 2 = 1.6; robust z-score, replicate 3 = 1.74; inactive.
